# Data from PubChem BioAssay (NCATS).
# By UniProt entry, the sequences of proteins in these tests, tags left out. Where a name states a change or a piece, a line headed by the entry shows the natural chain unless it says otherwise.
# UniProt Q8WZA2: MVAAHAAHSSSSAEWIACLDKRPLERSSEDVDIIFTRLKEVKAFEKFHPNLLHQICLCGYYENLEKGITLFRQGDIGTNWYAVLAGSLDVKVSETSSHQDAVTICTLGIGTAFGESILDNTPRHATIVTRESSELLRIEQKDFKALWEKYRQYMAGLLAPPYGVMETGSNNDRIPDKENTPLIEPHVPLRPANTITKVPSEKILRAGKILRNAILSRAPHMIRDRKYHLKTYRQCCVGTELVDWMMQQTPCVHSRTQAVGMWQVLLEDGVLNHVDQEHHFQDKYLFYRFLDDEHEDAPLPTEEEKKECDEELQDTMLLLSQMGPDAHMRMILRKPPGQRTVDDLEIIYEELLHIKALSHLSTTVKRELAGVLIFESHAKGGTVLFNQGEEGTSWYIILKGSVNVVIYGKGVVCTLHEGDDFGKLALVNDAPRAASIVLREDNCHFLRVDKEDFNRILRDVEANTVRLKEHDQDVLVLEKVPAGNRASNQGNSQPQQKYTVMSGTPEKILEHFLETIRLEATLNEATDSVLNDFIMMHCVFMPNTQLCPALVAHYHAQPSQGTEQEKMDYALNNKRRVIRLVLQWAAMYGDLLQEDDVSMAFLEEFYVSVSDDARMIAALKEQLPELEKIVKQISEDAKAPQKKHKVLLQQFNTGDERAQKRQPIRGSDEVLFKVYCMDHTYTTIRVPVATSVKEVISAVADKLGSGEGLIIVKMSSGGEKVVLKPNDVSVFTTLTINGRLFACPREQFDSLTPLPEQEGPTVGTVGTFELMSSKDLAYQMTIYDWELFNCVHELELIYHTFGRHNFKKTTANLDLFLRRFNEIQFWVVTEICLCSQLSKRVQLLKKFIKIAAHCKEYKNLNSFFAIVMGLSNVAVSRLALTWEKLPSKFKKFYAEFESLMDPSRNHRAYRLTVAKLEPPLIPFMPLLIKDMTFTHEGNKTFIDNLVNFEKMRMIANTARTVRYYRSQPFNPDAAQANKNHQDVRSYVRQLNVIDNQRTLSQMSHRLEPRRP
# UniProt Q9HAZ1: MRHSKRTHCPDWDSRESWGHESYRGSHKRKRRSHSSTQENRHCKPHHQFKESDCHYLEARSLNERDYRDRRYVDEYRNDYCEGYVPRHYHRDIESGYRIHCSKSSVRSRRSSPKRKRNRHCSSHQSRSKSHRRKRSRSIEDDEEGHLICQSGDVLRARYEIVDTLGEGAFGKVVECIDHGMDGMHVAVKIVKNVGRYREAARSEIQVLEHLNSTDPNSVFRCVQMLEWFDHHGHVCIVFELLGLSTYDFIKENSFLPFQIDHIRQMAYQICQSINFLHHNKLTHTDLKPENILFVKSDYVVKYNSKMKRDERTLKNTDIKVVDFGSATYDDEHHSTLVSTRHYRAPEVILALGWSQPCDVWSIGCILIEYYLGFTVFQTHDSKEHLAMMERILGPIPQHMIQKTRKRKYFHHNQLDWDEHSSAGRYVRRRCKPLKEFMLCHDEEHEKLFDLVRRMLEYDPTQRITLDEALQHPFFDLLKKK
# UniProt P08684, whole entry, looked up: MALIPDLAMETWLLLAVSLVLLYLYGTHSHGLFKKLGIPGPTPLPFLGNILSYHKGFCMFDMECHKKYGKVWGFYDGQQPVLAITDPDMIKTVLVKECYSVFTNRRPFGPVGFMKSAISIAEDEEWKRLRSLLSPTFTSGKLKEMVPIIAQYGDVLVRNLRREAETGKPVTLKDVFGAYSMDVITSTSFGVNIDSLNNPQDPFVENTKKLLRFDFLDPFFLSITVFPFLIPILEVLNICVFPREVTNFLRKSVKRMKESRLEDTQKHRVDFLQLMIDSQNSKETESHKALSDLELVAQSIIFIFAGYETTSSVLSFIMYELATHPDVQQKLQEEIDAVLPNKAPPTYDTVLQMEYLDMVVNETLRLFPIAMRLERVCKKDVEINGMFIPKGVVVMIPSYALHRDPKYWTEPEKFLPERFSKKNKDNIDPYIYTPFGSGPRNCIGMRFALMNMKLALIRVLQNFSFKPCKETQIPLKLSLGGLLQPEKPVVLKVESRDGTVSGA
# UniProt P27695, whole entry, looked up: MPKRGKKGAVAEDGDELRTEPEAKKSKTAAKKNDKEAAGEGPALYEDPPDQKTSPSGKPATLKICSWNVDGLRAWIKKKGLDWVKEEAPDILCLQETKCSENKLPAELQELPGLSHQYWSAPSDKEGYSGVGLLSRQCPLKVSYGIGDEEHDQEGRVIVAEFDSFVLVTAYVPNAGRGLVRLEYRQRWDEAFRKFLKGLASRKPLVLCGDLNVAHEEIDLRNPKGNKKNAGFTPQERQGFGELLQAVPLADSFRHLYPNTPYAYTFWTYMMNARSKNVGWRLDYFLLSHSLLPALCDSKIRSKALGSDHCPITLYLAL
# UniProt A8B2U2: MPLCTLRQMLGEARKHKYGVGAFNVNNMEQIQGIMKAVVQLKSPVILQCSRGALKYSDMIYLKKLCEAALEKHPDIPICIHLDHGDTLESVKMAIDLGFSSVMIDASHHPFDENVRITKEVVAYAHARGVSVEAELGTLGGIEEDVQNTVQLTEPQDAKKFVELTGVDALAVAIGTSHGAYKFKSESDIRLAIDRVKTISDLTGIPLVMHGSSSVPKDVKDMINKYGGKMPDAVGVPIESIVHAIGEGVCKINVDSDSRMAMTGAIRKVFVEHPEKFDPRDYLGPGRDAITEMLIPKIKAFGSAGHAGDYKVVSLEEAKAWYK
# UniProt P00883: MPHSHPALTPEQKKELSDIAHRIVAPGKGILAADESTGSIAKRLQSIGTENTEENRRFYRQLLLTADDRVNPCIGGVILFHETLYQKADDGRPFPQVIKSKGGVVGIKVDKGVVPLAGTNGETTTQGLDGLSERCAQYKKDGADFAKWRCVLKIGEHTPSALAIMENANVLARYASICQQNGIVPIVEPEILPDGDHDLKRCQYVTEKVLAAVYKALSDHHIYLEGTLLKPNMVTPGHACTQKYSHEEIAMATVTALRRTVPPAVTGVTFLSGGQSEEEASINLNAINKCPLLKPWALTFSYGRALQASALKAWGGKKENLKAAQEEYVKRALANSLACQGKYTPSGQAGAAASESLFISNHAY
# UniProt Q9NUW8, whole entry, looked up: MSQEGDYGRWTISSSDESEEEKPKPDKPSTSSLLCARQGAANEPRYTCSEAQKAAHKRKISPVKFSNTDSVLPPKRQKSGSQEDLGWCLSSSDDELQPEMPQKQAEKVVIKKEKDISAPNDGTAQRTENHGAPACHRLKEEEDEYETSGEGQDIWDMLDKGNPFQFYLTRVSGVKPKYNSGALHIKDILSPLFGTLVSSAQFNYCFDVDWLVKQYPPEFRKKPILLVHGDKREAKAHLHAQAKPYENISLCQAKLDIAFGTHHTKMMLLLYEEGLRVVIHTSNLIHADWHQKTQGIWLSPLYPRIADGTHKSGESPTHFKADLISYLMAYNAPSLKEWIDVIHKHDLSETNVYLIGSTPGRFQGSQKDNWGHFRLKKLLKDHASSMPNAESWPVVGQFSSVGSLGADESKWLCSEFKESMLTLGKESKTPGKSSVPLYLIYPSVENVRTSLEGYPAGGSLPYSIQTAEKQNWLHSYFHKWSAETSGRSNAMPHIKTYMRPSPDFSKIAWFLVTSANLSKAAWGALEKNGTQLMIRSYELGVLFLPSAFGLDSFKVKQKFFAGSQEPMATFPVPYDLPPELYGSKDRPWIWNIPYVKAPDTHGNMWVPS
# This list was built around the results that the source calls inconclusive (neither active nor inactive); the mix of calls is not that of the screen. For some assays here: Potencies beside an inconclusive call are fits to weak or partial responses and may not hold up. The source made the active and inactive calls. Unless noted, the call rests on the fitted dose curve; in most records, active means well fitted curve in the direction sought with a large enough effect; inconclusive means small, poorly fitted or top-dose-only effect, or another doubt; inactive means no such curve, though single readings can be large; an effect the other way counts as inactive or inconclusive.
# Experiments:
# [1] = target: Rap guanine nucleotide exchange factor 4 (Homo sapiens) (UniProt Q8WZA2); assay: Confirmatory qHTS for antagonist of cAMP-regulated guanine nucleotide exchange factor 4 (EPAC2) (AID 1645885); settings: activity change, negative = inhibition: at 12.7 µM (top of the series) unless noted; further: nearly all actives have a fitted effect of over 25% in size; further: potency means the concentration at half of the fitted maximal effect; on activity change, negative = inhibition: on the % scale 0 is the no-effect control and ±100 the full control effect
# [2] = target: Rap guanine nucleotide exchange factor 3 (Homo sapiens) (UniProt O95398); assay: Counterscreen qHTS for agonist of cAMP-regulated guanine nucleotide exchange factor 3 (EPAC1) (AID 1645889); settings: EPAC1 Rap1B-BODIPY-GDP exchange, fluorescence; activation: at 154 µM (top of the series) unless noted; further: nearly all actives have a fitted effect of over 40% in size; further: potency means the concentration at half of the fitted maximal effect; on activation: % of control where 0% means no effect
# Outline: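 Rap1B-BODIPY-GDP 250 nM + GDP 50 uM; cpds 7-pt, final 9.74 nM–152 uM (activator mode) or from 7.32 nM upwards (inhibitor mode); RT; FI 480/540 nm at 5 and 30 min, then ± cAMP, reread.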
# [3] = AP1 Signaling Pathway (AID 357; active means well fitted curve in either direction with a large enough effect, not every such curve was filed as active; inconclusive means small, poorly fitted or top-dose-only effect, or another doubt;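 further: ME-180 reporter cells stimulated with EGF at its EC50 level; on the % scale 0 is the no-effect control and ±100 the full control effect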); settings: ME-180 AP-1-bla reporter, EGF-induced, beta-lactamase ratio, 5 h; at 17.2 µM (top of the series) unless noted
# Outline: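 Titration-series screen for positive or negative modulators of EC50 EGF-induced signaling in ME-180 cells carrying an AP-1-driven beta-lactamase reporter. After 5 hours at 37 degrees Celsius, CCF4 460nm/530nm emission ratio gave %Activity; AC50 values derived.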
# [4] = NFAT Signaling Pathway (AID 444; active means well fitted curve in either direction with a large enough effect, not every such curve was filed as active; inconclusive means small, poorly fitted or top-dose-only effect, or another doubt;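 further: carbachol stimulus at about its EC50 of 1 µM final; on the % scale 0 is the no-effect control and ±100 the full control effect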); settings: Jurkat NFAT-bla M1, carbachol, beta-lactamase ratio, 5 h; at 17.2 µM (top of the series) unless noted
# Outline: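 Read-out: CCF4 FRET ratio (460 nm/530 nm) after 1 h RT dye loading, used for %activity and AC50 from titration series. Cells: Jurkat NFAT-β-lactamase/M1 line, treated with compound plus 1 uM carbachol for 5 h, 37 °C.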
# [5] = qHTS Assay for Identification of Small Molecule Agonists for Hypoxia Response Element Signaling Pathway (AID 914; active means well fitted activation curve with a large enough effect in the signal ratio, with a control signal flat, not every such curve was filed as active; inconclusive means small, poorly fitted or top-dose-only effect, or effect the other way, or a change in a side signal; the % refers to the signal ratio; further: % of control where 0% means no effect); settings: ME-180 (cervical carcinoma) HRE-bla reporter, beta-lactamase ratio, CoCl2, 17 h; activation: active compounds read high
# Outline: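 Read-out: CCF4 FRET ratio of 460nm to 530nm emission (excitation 405nm) after 2.5 hours at room temperature, taken from HRE-bla ME-180 cells that had been exposed to compound and EC50 CoCl2 for 17 hours.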
# [6] = target: Dual specificity protein kinase CLK4 (Homo sapiens) (UniProt Q9HAZ1); assay: qHTS Assay for Inhibitors of CDC-like Kinase 4 (Kinase-Glo Assay) (AID 1770); further: potency means the concentration at half of the fitted maximal effect; nearly all actives have a fitted effect of over 65% in size
# Outline: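 25 nM Clk4 with 100 uM RS repeat peptide and 1 uM ATP (final) in Tris pH7.5, 10 mM MgCl2, 4.5 h at room temperature. Remaining ATP measured by Kinase-Glo luciferase luminescence.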
# [7] = target: Dual specificity protein kinase CLK4 (Homo sapiens) (UniProt Q9HAZ1); assay: qHTS Assay for Inhibitors of CDC-like Kinase 4 (ADP-Glo Assay) (AID 1771); further: potency means the concentration at half of the fitted maximal effect; nearly all actives have a fitted effect of over 70% in size
# Outline: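 Luminescence from ADP-Glo reports ADP produced by 25 nM Clk4 acting on 100 uM RS repeat peptide with 1 uM ATP over 1 hr at room temperature; residual ATP is depleted before ADP is converted to ATP for detection.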
# [8] = target: Cytochrome P450 3A4 (Homo sapiens) (UniProt P08684); assay: qHTS Assay for Activators of Cytochrome P450 3A4 (AID 885); further: nearly all actives have a fitted effect of over 65% in size
# Outline: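 20nM CYP3A4 + 25uM Luciferin-PPXE (=KM), 200mM KPO4; cpd 10 min RT; NADPH regen, 60 min RT; stop w/ detection buffer, 20 min; luminescence. Normalized to 57 uM ketoconazole.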
# [9] = qHTS Assay for Identification of Small Molecule Antagonists for NFkB Signaling Pathway (AID 895; active means well fitted inhibition curve with a large enough effect in the signal ratio, with a control signal flat, not every such curve was filed as active; inconclusive means small, poorly fitted or top-dose-only effect, or effect the other way, or a change in a side signal; the % refers to the signal ratio; further: potency means the concentration at half of the fitted maximal effect); settings: NFkB beta-lactamase reporter cells, FRET ratio 460/530, stimulated with 10 pM TNF alpha; activity change, negative = inhibition: at 38.3 µM (top of the series)
# Outline: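 Beta-lactamase reporter read-out (460 and 530 nm emission ratio, 405 nm excitation, 2 hrs substrate loading RT) after 5 hr stimulation with 10 pM TNF alpha in compound-treated NFkB-bla ME-180 cells in low-serum medium.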
# [10] = Counterscreen for APE1 Inhibitors: Fluorescent Dye Displacement Assay (AID 2564);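 further: loss of thiazole orange fluorescence as the dye is displaced from duplex DNA; potency means the concentration at half of the fitted maximal effect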
# Outline: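 Thiazole Orange displacement from dsDNA: 250 nM ThO with 50 nM TAMRA-labelled abasic-site (tetrahydrofuran) duplex in 50 mM Tris-HCl pH7.5, 50mM NaCl, 2 mM MgCl2, 0.01% Tween-20. Loss of endpoint fluorescence (ex 480 nm, em 540 nm) flags DNA binders.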
# [11] = target: DNA repair nuclease/redox regulator APEX1 (Homo sapiens) (UniProt P27695); assay: Confirmation qHTS Assay for Inhibitors of the Human Apurinic/apyrimidinic Endonuclease 1 (APE1) (AID 2572); further: potency means the concentration at half of the fitted maximal effect; nearly all actives have a fitted effect of over 30% in size
# Outline: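 Enzyme and test compound were incubated for 15 min at room temperature, after which a 50 nM (final) double-stranded abasic-site substrate bearing 5'-TAMRA and 3'-BHQ-2 was added. Incision was followed as fluorescence increase over three reads.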
# [12] = target: DNA repair nuclease/redox regulator APEX1 (Homo sapiens) (UniProt P27695); assay: qHTS FP-Based Assay for Inhibitors of the Human Apurinic/apyrimidinic Endonuclease 1 (APE1) (AID 2573); further: potency means the concentration at half of the fitted maximal effect
# [13] = qHTS Assay for Inhibitors of Fructose-1,6-bisphosphate Aldolase from Giardia Lamblia: Giardia lamblia growth inhibition (AID 2785); settings: Giardia lamblia trophozoite growth inhibition; activity change, negative = inhibition: at 57.5 µM (top of the series); further: on the % scale 0 is the no-effect control and ±100 the full control effect; nearly all actives have a fitted effect of over 70% in size
# Outline: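 Whole-parasite growth test: Giardia WB trophozoites in TYI-S-33 (pH 7.0), 100 per well, incubated 48 h at 37C with compound. ATP content was read by ATPlite luminescence.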
# [14] = target: Fructose-bisphosphate aldolase (Giardia intestinalis (strain ATCC 50803 / WB clone C6)) (UniProt A8B2U2); assay: qHTS Assay for Inhibitors of Fructose-1,6-bisphosphate Aldolase from Giardia Lamblia: Primary screen confirmation (AID 2787)
# Outline: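 Confirmation of primary hits by qHTS up to 57.5 uM final compound. Enzyme at 40 nM with 30 uM ZnCl2, 10 min RT pre-incubation, then substrate/coupling/resorufin-forming detection mix for 20 min before fluorescence read at 525/598 nm.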
# [15] = target: Fructose-bisphosphate aldolase A (Oryctolagus cuniculus) (UniProt P00883); assay: qHTS Assay for Inhibitors of Fructose-1,6-bisphosphate Aldolase from Giardia Lamblia: Rabbit FBPA Selectivity (AID 2794)
# Outline: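 Cpd up to 57.5 uM final + coupling enzyme reagent, 10 min RT; add substrate/coupling system/AmpLite Red; 20 min RT; read fluor. 525/598 nm. Rabbit FBPA.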
# [16] = qHTS Assay for Inhibitors of Fructose-1,6-bisphosphate Aldolase from Giardia Lamblia: Coupling assay counterscreen confirmation (AID 2795)
# Outline: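 Compounds at up to 57.5 uM final tested against the coupling enzymes and resorufin-type fluorescent detection only, aldolase omitted. Ex 525 nm/em 598 nm read after 10 min enzyme-compound and 20 min substrate incubations, room temperature.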
# [17] = target: Tyrosyl-DNA phosphodiesterase 1 (Homo sapiens) (UniProt Q9NUW8); assay: Confirmation Assay for Inhibitors of Tyrosyl-DNA Phosphodiesterase (TDP1) (AID 489007); settings: recombinant human TDP1 enzymatic activity, dose-response; further: potency means the concentration at half of the fitted maximal effect; nearly all actives have a fitted effect of over 40% in size
# Outline: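 Tdp1 1 nM + cpd, 15 min RT; add biotin/phosphotyrosine-FITC oligo 15 nM, 5 min RT; add AS donor/acceptor beads 10 ug/ml, 10 min RT; read AlphaScreen. No-enzyme wells = max signal.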
smiles,measurement,setting,value
CC(C)(C)c1ccc(-c2nc(SCCCOc3ccccc3)n3[nH]c(=O)cc3n2)cc1,Potency,[1],inactive
same,Potency,[2],inactive
CCCC(=O)NCCCc1nc2ccccc2n1C,Potency,[1],"inconclusive: 1.9 µM [inhibitor, partial curve, poor fit]"
same,Potency,[2],inactive
COc1c(S(=O)(=O)N2CCCC2)ccc(Cl)c1Cl,Potency,[1],"inconclusive: 5.36 µM [inhibitor, partial curve, poor fit]"
same,activation,[2],inactive: 23.7% [at 30.8 µM]
Cc1ccccc1-c1nc(CS(=O)(=O)CC(=O)N(C)C2CCCCC2)c(C)o1,Potency,[1],inactive
same,activation,[2],inconclusive: 33.7% [activator]
CC(C)(C)NC(=O)NC(=O)CN1CCc2ccccc21,Potency,[1],inactive
same,activation,[2],inconclusive: 63.7% [activator] [at 30.8 µM]
CCc1nc2c(OCc3ccc(C(F)(F)F)cc3)cccn2c1N(C)C(=O)c1ccc(OC)cc1,Potency,[1],"inconclusive: 3.38 µM [inhibitor, single point]"
same,Potency,[2],"inconclusive: 22.4 µM [activator, partial curve, poor fit]"
COc1ccccc1CN(C(=O)CNC(=O)c1ccco1)C(C(=O)NCC1CCCO1)c1ccc(OC)c(OC)c1 (stereo not drawn),Potency,[1],"inconclusive: 84.9 µM [inhibitor, single point]"
same,Potency,[2],inactive
Cc1ccccc1NC1=C/C(=N\S(=O)(=O)c2ccc(C(=O)O)cc2)c2ccccc2C1=O,Potency,[1],inactive
same,Potency,[2],"inconclusive: 1 µM [activator, partial curve]"
COc1ccc(N2CCN(C(c3ccccc3F)c3sc4nc(-c5ccco5)nn4c3O)CC2)cc1 (stereo not drawn),Potency,[1],inactive
same,activation,[2],inconclusive: 40.6% [activator]
CC1CN(c2nc3ccccc3nc2C(C#N)C(=O)NCc2ccc3c(c2)OCO3)CC(C)O1 (stereo not drawn),Potency,[1],inactive
same,activation,[2],inconclusive: 27.7% [activator]
CCSc1nc(C)cc(C)c1S(=O)(=O)c1ccccc1C,Potency,[1],"inconclusive: 4.26 µM [inhibitor, partial curve, poor fit]"
same,Potency,[2],"inconclusive: 11.2 µM [activator, partial curve, poor fit]"
CCOC(=O)c1c(NC(=O)c2ccccc2OCC)sc2c1CCC(CC)C2 (stereo not drawn),Potency,[1],inactive
same,Potency,[2],inactive
CCCCNc1ccc2c3c(cccc13)C(=O)N(CCCC)C2=O,Potency,[1],"inconclusive: 8.49 µM [inhibitor, single point]"
same,Potency,[2],active: 20 µM
CN(C)S(=O)(=O)c1cccc(-c2nn(-c3ccccc3)cc2/C=C2\SC(=S)NC2=O)c1,Potency,[1],active: 42.6 µM
same,Potency,[2],"inconclusive: 4.47 µM [activator, partial curve, poor fit]"
CS/C(N)=N/N=C/c1c(O)ccc2ccccc12,Potency,[1],inactive
same,Potency,[2],inactive
Cc1nc2ccccc2c(=O)n1N(c1ccccc1)c1ccccc1,Potency,[1],"inconclusive: 6.75 µM [inhibitor, partial curve, poor fit]"
same,Potency,[2],"inconclusive: 12.6 µM [activator, partial curve, poor fit]"
CC1Cc2nc(SCC(=O)N3CCCc4ccccc43)n(C)c(=O)c2S1 (stereo not drawn),Potency,[1],inactive
same,activation,[2],inactive: 4.66% [at 30.8 µM]
O=C(O)C1CSC(c2ccco2)N1 (stereo not drawn),Potency,[1],inactive
same,activation,[2],inactive: 2.32% [at 30.8 µM]
FC(F)(F)c1ccccc1-c1nc(N2CCOCC2)c2ccccc2n1,"activity change, negative = inhibition",[3],inconclusive: 45.7% [activator] [at 7.69 µM]
same,"activity change, negative = inhibition",[4],inactive: -3.63% [at 7.69 µM]
same,activation,[5],inactive: 9.18%
same,Potency,[6],active: 25.1 µM
same,Potency,[7],active: 14.1 µM
Cc1cccc(CNc2nc(-c3ccc4c(c3)OCO4)nc3ccccc23)c1,"activity change, negative = inhibition",[4],inconclusive: -60.8% [inhibitor] [at 7.69 µM]
same,Potency,[8],inactive
CC[C@H](C)C(=O)O[C@H]1CCC=C2C=C[C@H](C)[C@H](CC[C@@H]3C[C@H](O)CC(=O)O3)[C@H]21,Potency,[9],"inconclusive: 17.8 µM [inhibitor, partial curve, poor fit]"
COc1cccc(Nc2ncc3nc(-c4cc(F)cc(F)c4)c(=O)n(C4CC4)c3n2)c1,activation,[5],inconclusive: 17.2%
O=C(/C=C/c1ccccc1)c1cc(Br)ccc(=O)c1O,Potency,[10],"inconclusive: 20 µM [inhibitor, partial curve, poor fit]"
same,Potency,[11],"inconclusive: 1.41 µM [inhibitor, full curve, poor fit]"
same,Potency,[12],"inconclusive: 1.26 µM [inhibitor, partial curve]"
Nn1cnnc1N/N=C/c1ccc(Cl)c([N+](=O)[O-])c1,Potency,[13],inactive
same,Potency,[14],"inconclusive: 14.1 µM [inhibitor, partial curve]"
same,Potency,[15],"inconclusive: 39.8 µM [inhibitor, partial curve]"
same,Potency,[16],"inconclusive: 39.8 µM [inhibitor, partial curve]"
OC[C@@H]1[C@@H](c2ccc(F)cc2)C(c2cccc(Cl)c2)=NN1c1ccccc1,Potency,[17],"inconclusive: 100 µM [inhibitor, partial curve]"

# Four entries from above, tab-delimited.
smiles	measurement	setting	value
CCc1nc2c(OCc3ccc(C(F)(F)F)cc3)cccn2c1N(C)C(=O)c1ccc(OC)cc1	Potency	[2]	inconclusive: 22.4 µM [activator, partial curve, poor fit]
O=C(O)C1CSC(c2ccco2)N1 (stereo not drawn)	Potency	[1]	inactive
FC(F)(F)c1ccccc1-c1nc(N2CCOCC2)c2ccccc2n1	activity change, negative = inhibition	[4]	inactive: -3.63% [at 7.69 µM]
Nn1cnnc1N/N=C/c1ccc(Cl)c([N+](=O)[O-])c1	Potency	[13]	inactive
